From ChEMBL document CHEMBL1681665, “3-amido-4-anilinocinnolines as a novel class of CSF-1R inhibitor” (Bioorg Med Chem Lett, 2011)
In brackets after ≈: the same amount, converted by molar mass.

Experiment: Aqueous solubility of the compound
Settings: buffer

CCOc1cc2nnc(C(N)=O)c(Nc3ccc(F)cc3F)c2cc1N1CCN(C)CC1
solubility: 8 µM (≈ 3.54 µg/mL)
